We go through one substance from paper PMC8327268.

Protein sequences, listed by entry. Tags and fused reporters are not part of them.
UniProt Q7TQN4: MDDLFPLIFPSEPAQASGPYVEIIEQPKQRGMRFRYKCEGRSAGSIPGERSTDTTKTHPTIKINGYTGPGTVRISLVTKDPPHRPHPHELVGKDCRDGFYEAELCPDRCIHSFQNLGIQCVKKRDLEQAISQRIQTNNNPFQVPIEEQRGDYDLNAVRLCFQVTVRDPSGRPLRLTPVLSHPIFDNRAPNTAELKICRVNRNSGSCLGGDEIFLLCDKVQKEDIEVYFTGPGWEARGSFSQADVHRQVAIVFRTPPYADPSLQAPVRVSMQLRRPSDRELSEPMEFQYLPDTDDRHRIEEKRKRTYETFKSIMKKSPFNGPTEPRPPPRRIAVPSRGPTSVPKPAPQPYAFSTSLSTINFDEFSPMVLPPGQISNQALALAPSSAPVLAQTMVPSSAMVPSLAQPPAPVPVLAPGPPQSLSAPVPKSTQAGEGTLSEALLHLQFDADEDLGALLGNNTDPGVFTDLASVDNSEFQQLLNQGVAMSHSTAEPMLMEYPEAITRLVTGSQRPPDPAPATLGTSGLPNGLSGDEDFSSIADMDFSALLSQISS

This assay concerns the target T1, integrin-associated protein (CD47) (rat (endogenous in H9c2)) (UniProt P97829).
T1 sequence: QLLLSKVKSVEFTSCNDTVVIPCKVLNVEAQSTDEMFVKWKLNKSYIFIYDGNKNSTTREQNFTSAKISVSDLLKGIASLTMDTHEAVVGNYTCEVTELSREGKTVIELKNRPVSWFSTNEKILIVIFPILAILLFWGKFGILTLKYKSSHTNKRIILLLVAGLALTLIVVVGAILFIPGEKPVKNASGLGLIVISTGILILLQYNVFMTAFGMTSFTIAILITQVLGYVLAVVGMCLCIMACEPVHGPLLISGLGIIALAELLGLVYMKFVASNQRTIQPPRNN
The assay is described as follows: co-IP; H9c2 whole-cell lysates (RIPA buffer) incubated with anti-CD47 or anti-p65 at 4°C for 12 h, then protein A/G magnetic beads for 2 h; three washes with cold PBS; western blot; cells also treated with a GSK-3β inhibitor (the paper says it weakens the interaction). For orientation: A western blot detects proteins with antibodies after separation by electrophoresis.

No constants are given. Whether binding was seen depends on the method and setting. Binding seen in cells or lysates may run through a third protein. Some results given as binding are weak or reduced against the parent protein; the word gives no strength.

As for p65 NF-κB (from UniProt Q7TQN4 1-550), the binding entry is reported as “binds”.
